Article PMC11536954

By UniProt entry, the sequences of proteins in these tests, tags left out.
UniProt P78527: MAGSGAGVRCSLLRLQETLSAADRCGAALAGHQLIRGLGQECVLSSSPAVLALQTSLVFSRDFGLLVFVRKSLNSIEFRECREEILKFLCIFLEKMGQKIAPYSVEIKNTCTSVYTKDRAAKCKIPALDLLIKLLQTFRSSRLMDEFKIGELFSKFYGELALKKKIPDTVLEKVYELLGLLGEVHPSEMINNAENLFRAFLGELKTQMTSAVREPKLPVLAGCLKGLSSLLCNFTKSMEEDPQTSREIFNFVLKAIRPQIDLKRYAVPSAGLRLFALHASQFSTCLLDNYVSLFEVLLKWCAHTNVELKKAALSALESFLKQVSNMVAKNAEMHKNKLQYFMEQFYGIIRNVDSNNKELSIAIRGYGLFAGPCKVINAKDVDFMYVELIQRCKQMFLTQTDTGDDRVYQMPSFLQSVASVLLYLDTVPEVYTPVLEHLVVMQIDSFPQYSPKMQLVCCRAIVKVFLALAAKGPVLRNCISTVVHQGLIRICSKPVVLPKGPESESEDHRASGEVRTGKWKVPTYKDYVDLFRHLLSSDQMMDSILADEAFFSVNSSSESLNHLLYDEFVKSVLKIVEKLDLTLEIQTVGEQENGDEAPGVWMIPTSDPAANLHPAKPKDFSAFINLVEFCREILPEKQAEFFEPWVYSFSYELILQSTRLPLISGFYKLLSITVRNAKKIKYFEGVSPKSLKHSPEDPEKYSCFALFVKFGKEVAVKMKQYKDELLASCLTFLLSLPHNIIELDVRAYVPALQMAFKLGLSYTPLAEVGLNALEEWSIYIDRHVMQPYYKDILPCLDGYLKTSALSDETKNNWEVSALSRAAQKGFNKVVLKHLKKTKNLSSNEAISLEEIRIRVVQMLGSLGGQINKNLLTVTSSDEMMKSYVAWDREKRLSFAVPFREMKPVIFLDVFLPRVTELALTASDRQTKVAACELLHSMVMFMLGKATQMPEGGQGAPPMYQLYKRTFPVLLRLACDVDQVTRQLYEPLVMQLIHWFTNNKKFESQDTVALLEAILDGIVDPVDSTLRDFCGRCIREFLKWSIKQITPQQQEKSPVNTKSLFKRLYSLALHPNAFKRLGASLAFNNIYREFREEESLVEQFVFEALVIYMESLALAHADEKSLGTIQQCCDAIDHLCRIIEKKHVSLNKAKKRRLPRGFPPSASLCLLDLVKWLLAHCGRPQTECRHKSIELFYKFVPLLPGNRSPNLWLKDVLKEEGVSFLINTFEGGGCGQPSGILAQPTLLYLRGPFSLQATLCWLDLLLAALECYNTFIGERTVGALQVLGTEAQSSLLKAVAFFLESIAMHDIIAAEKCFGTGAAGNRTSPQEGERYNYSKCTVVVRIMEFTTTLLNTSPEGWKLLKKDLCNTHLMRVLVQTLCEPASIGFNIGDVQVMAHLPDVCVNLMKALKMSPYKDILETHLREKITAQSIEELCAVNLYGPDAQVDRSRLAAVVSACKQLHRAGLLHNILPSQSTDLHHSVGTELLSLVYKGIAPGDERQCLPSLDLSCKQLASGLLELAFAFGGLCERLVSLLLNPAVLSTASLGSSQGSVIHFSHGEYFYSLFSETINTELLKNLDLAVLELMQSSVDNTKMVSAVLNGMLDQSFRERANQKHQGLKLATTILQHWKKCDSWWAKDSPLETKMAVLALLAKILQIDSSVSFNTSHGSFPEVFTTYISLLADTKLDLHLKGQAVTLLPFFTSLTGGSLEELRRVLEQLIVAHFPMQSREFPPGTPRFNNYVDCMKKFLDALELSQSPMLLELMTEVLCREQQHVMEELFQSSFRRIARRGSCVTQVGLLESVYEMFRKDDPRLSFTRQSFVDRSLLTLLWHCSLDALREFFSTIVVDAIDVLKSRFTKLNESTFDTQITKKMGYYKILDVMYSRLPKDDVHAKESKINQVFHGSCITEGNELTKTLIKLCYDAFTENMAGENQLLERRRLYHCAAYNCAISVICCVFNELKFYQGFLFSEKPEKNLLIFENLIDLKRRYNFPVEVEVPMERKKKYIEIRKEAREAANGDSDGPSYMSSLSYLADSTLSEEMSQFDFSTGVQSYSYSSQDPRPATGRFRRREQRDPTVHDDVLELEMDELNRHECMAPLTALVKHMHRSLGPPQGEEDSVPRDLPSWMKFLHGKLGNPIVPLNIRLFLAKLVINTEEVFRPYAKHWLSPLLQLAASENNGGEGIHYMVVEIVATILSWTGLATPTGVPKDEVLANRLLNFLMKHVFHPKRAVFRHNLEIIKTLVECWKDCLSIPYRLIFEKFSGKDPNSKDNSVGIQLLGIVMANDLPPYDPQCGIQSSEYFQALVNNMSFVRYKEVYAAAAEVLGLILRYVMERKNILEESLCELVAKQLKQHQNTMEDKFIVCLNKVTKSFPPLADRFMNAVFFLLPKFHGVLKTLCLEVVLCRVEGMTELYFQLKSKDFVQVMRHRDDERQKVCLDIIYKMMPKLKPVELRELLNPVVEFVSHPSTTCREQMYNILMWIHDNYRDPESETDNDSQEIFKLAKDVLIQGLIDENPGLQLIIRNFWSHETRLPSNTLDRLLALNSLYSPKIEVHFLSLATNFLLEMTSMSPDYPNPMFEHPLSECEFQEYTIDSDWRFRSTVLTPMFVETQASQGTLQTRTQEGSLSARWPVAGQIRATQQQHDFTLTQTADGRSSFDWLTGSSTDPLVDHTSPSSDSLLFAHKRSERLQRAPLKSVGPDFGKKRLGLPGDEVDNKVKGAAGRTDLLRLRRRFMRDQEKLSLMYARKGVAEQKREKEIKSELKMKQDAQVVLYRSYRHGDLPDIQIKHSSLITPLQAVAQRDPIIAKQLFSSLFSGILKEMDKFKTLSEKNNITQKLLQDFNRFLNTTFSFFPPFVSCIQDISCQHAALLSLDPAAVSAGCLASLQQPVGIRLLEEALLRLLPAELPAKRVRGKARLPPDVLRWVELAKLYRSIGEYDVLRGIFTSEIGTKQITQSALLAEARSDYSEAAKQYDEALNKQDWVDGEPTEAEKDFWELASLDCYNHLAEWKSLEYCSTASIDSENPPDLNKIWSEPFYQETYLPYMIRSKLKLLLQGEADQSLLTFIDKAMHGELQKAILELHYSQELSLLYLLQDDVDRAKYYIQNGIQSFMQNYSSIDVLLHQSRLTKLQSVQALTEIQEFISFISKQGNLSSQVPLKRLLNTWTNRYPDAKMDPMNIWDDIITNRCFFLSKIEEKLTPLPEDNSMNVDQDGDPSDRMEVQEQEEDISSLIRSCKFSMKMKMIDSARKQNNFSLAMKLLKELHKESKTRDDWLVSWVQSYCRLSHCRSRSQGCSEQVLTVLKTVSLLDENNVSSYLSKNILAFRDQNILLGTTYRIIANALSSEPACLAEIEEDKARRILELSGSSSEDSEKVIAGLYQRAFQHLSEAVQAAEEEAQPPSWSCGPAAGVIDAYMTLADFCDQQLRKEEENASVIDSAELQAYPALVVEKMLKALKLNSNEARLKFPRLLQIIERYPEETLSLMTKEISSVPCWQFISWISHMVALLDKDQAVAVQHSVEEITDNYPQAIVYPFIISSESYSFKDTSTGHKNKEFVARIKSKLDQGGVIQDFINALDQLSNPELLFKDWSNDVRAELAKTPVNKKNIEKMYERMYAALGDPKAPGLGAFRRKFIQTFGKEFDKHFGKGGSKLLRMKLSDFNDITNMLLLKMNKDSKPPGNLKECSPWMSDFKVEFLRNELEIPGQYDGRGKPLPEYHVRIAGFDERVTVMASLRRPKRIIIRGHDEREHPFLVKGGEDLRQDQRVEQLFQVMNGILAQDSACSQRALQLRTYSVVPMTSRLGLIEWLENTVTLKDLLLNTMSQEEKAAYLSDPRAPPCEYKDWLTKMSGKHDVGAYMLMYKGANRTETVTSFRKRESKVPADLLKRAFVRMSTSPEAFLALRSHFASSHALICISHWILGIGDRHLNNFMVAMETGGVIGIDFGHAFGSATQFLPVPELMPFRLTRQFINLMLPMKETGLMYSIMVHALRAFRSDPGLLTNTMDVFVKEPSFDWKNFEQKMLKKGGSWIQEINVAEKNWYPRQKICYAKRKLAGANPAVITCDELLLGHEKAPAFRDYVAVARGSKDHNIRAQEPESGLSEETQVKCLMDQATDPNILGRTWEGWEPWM
UniProt P35222: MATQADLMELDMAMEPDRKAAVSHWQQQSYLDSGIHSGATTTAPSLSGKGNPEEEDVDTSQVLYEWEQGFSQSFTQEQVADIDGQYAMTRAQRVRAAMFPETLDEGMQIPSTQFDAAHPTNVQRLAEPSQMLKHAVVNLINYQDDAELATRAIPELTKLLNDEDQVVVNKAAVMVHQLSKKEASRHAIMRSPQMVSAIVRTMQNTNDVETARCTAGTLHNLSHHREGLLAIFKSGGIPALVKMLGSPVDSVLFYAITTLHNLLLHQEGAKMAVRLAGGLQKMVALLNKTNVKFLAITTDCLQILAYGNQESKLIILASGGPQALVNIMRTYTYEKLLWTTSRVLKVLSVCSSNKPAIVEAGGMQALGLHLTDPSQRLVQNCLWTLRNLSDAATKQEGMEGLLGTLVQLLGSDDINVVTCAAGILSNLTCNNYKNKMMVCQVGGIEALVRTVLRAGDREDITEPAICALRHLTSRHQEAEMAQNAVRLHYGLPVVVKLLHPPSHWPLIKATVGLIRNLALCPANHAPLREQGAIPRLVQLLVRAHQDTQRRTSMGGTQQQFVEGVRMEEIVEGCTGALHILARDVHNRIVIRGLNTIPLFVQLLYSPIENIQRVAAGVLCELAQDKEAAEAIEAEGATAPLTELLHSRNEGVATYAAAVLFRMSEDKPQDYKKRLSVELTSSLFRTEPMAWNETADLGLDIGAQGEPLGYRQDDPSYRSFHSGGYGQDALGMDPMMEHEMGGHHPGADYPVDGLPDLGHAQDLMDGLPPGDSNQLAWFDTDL

What follows are substances tested against T1, exogenous PORCN-WT of PORCN-WT HT1080 cells (bait of the mass spectrometry) (UniProt Q9H237) (assay: affinity purification with mass spectrometry; exogenous PORCN immunoprecipitated from PORCN-WT or PORCN-ΔNLS HT1080 cells before and after IR; RIPA lysate, protein A/G Sepharose, silver-stained SDS-PAGE, LC-MS/MS).
T1 sequence: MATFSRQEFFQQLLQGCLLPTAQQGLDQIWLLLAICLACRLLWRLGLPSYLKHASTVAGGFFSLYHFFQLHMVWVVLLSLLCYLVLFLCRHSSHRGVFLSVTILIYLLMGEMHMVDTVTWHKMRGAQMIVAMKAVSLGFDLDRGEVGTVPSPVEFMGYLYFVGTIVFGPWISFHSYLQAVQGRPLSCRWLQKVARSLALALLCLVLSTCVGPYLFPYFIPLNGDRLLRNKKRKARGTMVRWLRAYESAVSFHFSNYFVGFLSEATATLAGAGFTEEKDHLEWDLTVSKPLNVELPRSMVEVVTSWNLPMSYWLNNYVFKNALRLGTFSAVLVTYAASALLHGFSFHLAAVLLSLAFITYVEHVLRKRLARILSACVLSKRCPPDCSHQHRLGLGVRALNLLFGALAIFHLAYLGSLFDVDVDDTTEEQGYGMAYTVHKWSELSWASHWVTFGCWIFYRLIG

binding, binds:
DNA-dependent protein kinase catalytic subunit (DNA-PKcs), endogenous (from UniProt P78527 1-4128) (enzyme)
Ku70 (XRCC6), endogenous (from UniProt P12956 1-609)
Ku80 (XRCC5), endogenous (from UniProt P13010 1-732)
β-catenin, endogenous (from UniProt P35222 1-781)

Results are given in words; binding and its absence hold for the method and conditions named. Binding seen in cells or lysates may run through a third protein. A yes stands for co-enrichment or nearness to the bait. Other partners may have been found.
